Source: PMC3917433
No constants are given. Whether binding was seen depends on the method and setting. Some entries that bind do so weakly or less than the wild type.

Sequences of proteins named here, by UniProt entry; tags and fusion partners are left off.
UniProt O15417: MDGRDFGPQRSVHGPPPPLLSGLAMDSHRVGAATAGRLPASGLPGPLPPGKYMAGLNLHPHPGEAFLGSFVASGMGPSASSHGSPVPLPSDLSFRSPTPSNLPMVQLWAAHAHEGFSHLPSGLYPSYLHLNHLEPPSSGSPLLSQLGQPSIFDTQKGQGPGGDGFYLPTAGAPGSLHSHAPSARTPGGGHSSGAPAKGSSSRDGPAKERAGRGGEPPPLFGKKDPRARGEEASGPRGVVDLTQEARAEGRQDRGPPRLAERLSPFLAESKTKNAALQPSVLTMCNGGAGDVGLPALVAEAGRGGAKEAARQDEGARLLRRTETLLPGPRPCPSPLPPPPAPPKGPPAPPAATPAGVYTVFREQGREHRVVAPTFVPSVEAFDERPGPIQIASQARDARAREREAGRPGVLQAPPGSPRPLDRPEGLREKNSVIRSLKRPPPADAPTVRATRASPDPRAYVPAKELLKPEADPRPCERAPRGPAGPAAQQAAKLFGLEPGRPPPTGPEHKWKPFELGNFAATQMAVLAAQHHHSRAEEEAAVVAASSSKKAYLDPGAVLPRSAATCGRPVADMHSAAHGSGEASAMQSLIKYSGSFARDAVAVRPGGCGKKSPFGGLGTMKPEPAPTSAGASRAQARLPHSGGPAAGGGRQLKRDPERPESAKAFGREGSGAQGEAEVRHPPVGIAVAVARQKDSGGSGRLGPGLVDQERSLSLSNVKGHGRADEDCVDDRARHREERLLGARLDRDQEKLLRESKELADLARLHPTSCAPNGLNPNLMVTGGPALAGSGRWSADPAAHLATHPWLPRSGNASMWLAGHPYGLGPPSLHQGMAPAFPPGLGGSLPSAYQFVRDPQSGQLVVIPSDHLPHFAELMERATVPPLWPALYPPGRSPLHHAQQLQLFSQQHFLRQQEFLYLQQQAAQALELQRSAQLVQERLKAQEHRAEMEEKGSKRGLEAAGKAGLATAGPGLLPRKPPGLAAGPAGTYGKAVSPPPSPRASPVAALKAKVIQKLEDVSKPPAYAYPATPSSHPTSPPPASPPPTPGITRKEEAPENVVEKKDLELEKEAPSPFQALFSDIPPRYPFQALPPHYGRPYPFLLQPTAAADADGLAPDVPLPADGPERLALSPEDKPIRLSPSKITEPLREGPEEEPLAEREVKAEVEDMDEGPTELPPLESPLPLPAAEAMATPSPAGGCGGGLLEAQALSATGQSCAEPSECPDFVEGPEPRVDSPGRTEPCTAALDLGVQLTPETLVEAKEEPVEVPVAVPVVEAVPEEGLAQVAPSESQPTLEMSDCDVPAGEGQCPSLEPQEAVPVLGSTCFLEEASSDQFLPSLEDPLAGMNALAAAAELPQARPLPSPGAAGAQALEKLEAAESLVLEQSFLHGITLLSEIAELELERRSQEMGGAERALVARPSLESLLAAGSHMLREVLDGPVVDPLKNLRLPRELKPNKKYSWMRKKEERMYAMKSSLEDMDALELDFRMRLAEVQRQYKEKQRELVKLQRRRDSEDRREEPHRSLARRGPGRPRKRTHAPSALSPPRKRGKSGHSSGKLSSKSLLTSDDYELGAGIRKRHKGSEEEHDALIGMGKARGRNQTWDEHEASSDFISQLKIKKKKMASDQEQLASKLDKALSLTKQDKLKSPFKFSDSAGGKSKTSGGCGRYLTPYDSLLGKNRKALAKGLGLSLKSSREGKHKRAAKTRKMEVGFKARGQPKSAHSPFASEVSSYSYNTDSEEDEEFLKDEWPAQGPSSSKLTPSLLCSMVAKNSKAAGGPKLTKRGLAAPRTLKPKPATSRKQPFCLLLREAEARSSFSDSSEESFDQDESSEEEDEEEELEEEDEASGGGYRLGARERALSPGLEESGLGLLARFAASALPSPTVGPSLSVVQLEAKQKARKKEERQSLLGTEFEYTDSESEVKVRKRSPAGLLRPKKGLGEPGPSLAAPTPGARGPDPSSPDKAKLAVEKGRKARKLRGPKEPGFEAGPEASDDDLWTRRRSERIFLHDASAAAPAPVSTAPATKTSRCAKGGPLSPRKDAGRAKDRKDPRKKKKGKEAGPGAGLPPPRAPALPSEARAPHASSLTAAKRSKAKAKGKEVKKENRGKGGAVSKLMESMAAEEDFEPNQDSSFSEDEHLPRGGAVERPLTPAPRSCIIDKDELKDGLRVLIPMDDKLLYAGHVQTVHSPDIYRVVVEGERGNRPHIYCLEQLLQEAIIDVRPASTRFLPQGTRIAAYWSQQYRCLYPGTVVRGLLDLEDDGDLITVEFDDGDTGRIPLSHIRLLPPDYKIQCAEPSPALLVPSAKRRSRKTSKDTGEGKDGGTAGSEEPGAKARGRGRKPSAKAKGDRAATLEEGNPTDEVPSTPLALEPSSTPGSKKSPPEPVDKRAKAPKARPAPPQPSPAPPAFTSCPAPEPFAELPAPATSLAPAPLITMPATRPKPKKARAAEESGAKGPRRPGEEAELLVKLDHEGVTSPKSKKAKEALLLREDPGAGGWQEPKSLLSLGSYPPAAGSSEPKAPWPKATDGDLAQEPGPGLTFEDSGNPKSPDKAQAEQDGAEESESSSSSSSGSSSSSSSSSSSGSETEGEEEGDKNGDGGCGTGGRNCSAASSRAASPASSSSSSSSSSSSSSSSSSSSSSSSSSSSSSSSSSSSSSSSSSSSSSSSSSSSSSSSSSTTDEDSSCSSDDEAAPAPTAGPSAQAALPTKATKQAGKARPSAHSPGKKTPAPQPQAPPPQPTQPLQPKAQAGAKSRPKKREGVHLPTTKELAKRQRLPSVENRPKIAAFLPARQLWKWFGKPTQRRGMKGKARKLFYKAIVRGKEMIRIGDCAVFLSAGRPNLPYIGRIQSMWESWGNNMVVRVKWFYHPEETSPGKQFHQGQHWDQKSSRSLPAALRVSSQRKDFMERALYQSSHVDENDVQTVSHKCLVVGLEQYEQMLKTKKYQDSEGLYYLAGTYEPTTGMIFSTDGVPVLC
UniProt Q76NI1: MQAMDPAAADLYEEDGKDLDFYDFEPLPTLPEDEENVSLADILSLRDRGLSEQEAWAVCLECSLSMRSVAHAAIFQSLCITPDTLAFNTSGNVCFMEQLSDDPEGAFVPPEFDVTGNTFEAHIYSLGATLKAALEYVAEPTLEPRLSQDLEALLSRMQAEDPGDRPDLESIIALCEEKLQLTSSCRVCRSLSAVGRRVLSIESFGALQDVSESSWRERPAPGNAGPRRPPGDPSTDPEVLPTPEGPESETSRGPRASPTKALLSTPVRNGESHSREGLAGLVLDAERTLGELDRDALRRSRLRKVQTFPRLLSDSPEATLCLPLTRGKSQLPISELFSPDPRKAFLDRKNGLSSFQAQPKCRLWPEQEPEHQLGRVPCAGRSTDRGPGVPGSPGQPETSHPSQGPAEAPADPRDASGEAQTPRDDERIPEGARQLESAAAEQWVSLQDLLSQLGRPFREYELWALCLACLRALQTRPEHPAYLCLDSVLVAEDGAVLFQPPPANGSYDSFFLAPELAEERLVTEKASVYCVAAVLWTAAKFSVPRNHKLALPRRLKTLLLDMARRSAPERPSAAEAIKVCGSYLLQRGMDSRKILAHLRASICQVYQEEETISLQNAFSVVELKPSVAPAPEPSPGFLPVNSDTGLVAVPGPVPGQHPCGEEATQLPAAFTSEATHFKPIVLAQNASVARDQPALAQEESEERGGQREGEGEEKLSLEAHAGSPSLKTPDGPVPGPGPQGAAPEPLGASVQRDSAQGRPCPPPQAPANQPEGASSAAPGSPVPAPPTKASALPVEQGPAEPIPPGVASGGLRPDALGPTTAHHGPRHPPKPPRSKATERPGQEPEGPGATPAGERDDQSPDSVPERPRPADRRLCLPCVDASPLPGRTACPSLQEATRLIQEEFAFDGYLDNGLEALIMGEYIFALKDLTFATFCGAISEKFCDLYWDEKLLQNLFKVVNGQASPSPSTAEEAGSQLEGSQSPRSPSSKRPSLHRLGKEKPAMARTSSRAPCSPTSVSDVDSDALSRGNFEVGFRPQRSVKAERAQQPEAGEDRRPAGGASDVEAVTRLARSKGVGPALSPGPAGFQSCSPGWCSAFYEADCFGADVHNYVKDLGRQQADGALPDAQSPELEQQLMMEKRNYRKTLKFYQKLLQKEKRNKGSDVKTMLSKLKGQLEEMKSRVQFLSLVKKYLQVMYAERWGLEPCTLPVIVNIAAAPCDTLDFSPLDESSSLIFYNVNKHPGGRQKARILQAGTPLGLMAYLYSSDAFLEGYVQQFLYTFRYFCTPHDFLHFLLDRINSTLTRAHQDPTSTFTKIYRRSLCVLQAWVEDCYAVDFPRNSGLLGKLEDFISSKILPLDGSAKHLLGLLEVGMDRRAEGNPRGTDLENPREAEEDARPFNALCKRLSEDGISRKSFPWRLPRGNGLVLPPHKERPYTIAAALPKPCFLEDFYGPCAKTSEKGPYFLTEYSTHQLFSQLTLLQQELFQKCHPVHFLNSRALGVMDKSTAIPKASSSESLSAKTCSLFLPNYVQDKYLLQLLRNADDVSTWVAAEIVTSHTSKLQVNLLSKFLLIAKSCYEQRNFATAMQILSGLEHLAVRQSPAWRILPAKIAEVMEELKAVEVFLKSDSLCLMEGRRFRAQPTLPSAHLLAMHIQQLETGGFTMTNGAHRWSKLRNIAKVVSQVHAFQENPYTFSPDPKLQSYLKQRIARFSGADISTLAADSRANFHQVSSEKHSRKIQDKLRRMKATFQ
UniProt P13202: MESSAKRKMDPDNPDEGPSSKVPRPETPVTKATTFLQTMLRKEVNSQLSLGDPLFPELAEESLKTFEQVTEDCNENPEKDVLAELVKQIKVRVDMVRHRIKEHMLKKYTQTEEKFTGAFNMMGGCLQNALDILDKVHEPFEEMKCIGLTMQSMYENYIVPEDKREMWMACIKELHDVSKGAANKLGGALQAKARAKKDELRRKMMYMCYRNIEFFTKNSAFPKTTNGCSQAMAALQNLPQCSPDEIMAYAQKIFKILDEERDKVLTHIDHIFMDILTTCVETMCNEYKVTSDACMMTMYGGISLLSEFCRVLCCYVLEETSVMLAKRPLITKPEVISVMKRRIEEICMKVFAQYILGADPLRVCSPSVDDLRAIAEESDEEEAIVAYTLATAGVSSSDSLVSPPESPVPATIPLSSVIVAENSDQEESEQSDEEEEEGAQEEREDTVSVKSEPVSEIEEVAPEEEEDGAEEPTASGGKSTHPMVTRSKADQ

Experiments:
Test in all cases: peptide or protein array; only the binder purified
[1] = target: KIAA1856 protein (KIAA1856) (human) (UniProt O15417)
[2] = target: T1, tumor necrosis factor, alpha-induced protein 2 (TNFAIP2) (human) (UniProt Q03169)
T1 sequence: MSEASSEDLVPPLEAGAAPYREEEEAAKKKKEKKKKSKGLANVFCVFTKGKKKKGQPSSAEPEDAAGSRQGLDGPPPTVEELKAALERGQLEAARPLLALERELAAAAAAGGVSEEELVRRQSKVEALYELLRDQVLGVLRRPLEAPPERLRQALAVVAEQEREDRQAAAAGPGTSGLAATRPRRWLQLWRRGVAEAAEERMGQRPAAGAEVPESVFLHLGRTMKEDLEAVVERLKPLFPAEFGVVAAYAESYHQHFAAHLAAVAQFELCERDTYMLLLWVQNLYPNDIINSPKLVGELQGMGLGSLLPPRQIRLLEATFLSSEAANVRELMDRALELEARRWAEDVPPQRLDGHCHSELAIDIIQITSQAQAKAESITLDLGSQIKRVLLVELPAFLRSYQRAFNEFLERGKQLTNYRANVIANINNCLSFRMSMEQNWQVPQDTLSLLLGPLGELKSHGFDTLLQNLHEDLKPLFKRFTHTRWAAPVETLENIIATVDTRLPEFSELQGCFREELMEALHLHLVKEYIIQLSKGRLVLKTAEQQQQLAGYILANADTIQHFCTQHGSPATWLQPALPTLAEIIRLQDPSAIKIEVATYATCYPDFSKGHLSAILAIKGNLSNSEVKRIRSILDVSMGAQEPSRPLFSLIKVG

[3] = target: Kinase non-catalytic C-lobe domain (KIND) containing 1 (KNDC1) (human) (UniProt Q76NI1)
[4] = target: T2, Intersex-like protein (human) (UniProt Q9NX70)
T2 sequence: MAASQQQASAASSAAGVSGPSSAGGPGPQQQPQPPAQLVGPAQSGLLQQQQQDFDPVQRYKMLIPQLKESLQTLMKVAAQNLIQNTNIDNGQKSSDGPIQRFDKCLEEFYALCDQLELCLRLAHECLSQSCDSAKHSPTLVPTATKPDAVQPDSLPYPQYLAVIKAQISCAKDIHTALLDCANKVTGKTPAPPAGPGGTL

Measured: binding

Human cytomegalovirus immediate-early protein 1 (from UniProt P13202 1-491)
binds: all assays above
